Assay results as given in article doi:10.1101/2023.12.12.570754.
No constants are given. Whether binding was seen depends on the method and setting. Binding seen in cells or lysates may run through a third protein. A yes stands for co-enrichment or nearness to the bait. Other partners may have been found. Sequences can lack the tags named with a protein.

Protein sequences, listed by entry. Tags and fused reporters are not part of them.
UniProt P23475: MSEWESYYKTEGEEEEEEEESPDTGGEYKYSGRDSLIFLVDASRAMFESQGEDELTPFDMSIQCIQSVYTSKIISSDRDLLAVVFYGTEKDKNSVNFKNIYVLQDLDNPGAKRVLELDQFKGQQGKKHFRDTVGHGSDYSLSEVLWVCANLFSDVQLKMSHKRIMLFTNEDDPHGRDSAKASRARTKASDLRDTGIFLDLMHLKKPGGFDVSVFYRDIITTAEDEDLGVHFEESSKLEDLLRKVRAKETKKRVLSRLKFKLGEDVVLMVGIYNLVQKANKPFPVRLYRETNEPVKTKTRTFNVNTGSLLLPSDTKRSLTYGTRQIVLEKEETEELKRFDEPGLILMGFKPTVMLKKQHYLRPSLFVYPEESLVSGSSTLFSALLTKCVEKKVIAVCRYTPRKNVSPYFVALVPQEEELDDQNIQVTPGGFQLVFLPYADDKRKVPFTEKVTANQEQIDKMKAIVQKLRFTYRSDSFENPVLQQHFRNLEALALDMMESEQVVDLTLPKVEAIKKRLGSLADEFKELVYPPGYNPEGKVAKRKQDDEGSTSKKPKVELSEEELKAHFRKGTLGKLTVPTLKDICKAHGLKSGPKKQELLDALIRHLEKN
UniProt P27641: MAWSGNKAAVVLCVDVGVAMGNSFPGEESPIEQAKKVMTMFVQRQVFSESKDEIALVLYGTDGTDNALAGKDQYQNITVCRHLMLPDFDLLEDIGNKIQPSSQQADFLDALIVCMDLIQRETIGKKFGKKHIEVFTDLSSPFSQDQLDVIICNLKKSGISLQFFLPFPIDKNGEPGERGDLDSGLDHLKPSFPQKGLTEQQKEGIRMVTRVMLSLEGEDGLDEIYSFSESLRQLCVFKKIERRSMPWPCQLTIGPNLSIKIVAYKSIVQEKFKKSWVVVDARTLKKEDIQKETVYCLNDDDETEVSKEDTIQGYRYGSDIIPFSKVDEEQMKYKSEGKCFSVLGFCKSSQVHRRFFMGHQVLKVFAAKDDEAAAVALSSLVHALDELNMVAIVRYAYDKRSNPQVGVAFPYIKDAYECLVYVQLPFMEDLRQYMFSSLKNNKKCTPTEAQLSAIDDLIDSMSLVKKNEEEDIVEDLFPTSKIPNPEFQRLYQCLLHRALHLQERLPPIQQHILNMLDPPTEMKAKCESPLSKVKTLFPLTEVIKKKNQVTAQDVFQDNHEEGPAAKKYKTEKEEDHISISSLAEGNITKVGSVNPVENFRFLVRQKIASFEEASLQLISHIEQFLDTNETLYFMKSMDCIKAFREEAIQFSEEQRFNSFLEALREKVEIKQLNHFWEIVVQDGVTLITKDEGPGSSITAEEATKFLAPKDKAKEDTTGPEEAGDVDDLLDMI

Target: T1, N-terminal GFP-tagged RAG2 C-terminal region (aa351-527) fusion protein (human) (UniProt P55895)
T1 sequence: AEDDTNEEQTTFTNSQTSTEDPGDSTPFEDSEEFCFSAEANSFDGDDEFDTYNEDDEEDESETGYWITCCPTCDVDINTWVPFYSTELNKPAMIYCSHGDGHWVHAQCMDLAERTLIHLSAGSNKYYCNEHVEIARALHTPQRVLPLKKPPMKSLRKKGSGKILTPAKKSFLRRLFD
Experiment: affinity purification with mass spectrometry

Substance | binding
endogenous Ku70 (XRCC6) (from UniProt P23475 1-608) | binds
endogenous Ku80 (XRCC5) (from UniProt P27641 1-732) | binds
